Measurements: patent US8389766B2, “Insecticidal compounds” (Syngenta Crop Protection LLC, priority 2006, dated 2013)
Some entries share one result that the patent states for a list of compounds.

How the values were obtained:
Type in all cases: in vivo
[1] = system: Spodoptera littoralis; experiment: Spodoptera littoralis (Egyptian cotton leafworm) cotton leaf disc spray test; settings: 200 ppm sprayed on cotton leaf discs, 5 L1 larvae; mortality, feeding behaviour, growth regulation 3 DAT
[2] = system: Myzus persicae; experiment: Myzus persicae (green peach aphid) sunflower leaf disc spray test; settings: 200 ppm sprayed on sunflower leaf discs, mixed ages; mortality 6 DAT
[3] = system: Plutella xylostella; experiment: Plutella xylostella (diamond back moth) larvae test on artificial diet; settings: 200 ppm (concentration in well 18 ppm), L2 larvae, larval mortality, growth regulation after 6 days
[4] = system: Heliothis virescens; experiment: Heliothis virescens (tobacco budworm) egg test on artificial diet; settings: 200 ppm (concentration in well 18 ppm), eggs 0-24 h old on artificial diet; egg mortality, larval mortality, growth regulation after 4 days
[5] = system: Diabrotica balteata; experiment: Diabrotica balteata (corn root worm) larvae test on artificial diet; settings: 200 ppm (concentration in well 18 ppm), L2 larvae, larval mortality, growth regulation after 5 days
[6] = system: Tetranychus urticae; experiment: Tetranychus urticae (two-spotted spider mite) bean leaf disc spray test; settings: 200 ppm sprayed on bean leaf discs, mixed ages; egg, larval and adult mortality 8 days later
[7] = system: Thrips tabaci; experiment: Thrips tabaci (onion thrips) sunflower leaf disc spray test; settings: 200 ppm sprayed on sunflower leaf discs, mixed ages; mortality after 7 days

Cc1cc(C(F)(C(F)(F)F)C(F)(F)F)cc(C)c1NC(=O)c1ccc(C#N)c(NC(=O)c2ccc(C#N)cc2)c1 [A1, 4-cyano-3-(4′-cyano-benzoylamino)-N-[2,6-dimethyl-4-(1,2,22-tetrafluoro-1-trifluoromethyl-ethyl)-phenyl]-benzamide]
at least 80%: control of Spodoptera littoralis [1] | control of Myzus persicae [2] | control of Plutella xylostella [3] | control of Heliothis virescens [4] | control of Diabrotica balteata [5] | control of Tetranychus urticae [6]

CCc1cc(C(F)(C(F)(F)F)C(F)(F)F)cc(CC)c1NC(=O)c1ccc(C#N)c(N(C)C(=O)c2ccccc2C)c1 [C25]
at least 80%: control of Spodoptera littoralis [1] | control of Thrips tabaci [7] | control of Plutella xylostella [3] | control of Heliothis virescens [4] | control of Tetranychus urticae [6]

CCc1cc(C(F)(C(F)(F)F)C(F)(F)F)cc(CC)c1NC(=O)c1ccc(C#N)c(N(C)C(=O)c2ccc([N+](=O)[O-])cc2)c1 [C27]
at least 80%: control of Spodoptera littoralis [1] | control of Thrips tabaci [7] | control of Plutella xylostella [3] | control of Heliothis virescens [4] | control of Diabrotica balteata [5] | control of Tetranychus urticae [6]

CCc1cc(C(F)(C(F)(F)F)C(F)(F)F)cc(CC)c1NC(=O)c1ccc(C#N)c(N(C)C(=O)c2ccc([N+](=O)[O-])cc2Cl)c1 [C30]
at least 80%: control of Spodoptera littoralis [1] | control of Thrips tabaci [7] | control of Plutella xylostella [3] | control of Heliothis virescens [4] | control of Diabrotica balteata [5] | control of Tetranychus urticae [6]

CCc1cc(C(F)(C(F)(F)F)C(F)(F)F)cc(CC)c1NC(=O)c1ccc(C#N)c(N(C)C(=O)c2ccc(F)cc2)c1 [C36]
at least 80%: control of Spodoptera littoralis [1] | control of Thrips tabaci [7] | control of Plutella xylostella [3] | control of Heliothis virescens [4] | control of Diabrotica balteata [5] | control of Tetranychus urticae [6]

CCc1cc(C(F)(C(F)(F)F)C(F)(F)F)cc(CC)c1NC(=O)c1ccc(C#N)c(N(C)C(=O)c2ccc(C#N)cc2)c1 [C41]
at least 80%: control of Spodoptera littoralis [1] | control of Myzus persicae [2] | control of Thrips tabaci [7] | control of Plutella xylostella [3] | control of Heliothis virescens [4] | control of Diabrotica balteata [5]

Cc1cc(C(F)(C(F)(F)F)C(F)(F)F)cc(C)c1NC(=O)c1ccc(C#N)c(NC(=O)c2ccc(C#N)cc2)c1F [D4]
at least 80%: control of Spodoptera littoralis [1] | control of Thrips tabaci [7] | control of Plutella xylostella [3] | control of Heliothis virescens [4] | control of Diabrotica balteata [5] | control of Tetranychus urticae [6]

Cc1cc(C(F)(C(F)(F)F)C(F)(F)F)cc(C)c1NC(=O)c1ccc(C#N)c(NC(=O)c2ccc([N+](=O)[O-])cc2)c1F [D5]
at least 80%: control of Spodoptera littoralis [1] | control of Thrips tabaci [7] | control of Plutella xylostella [3] | control of Heliothis virescens [4] | control of Diabrotica balteata [5] | control of Tetranychus urticae [6]

Cc1cc(C(F)(C(F)(F)F)C(F)(F)F)cc(C)c1NC(=O)c1ccc(C#N)c(NC(=O)c2ccc([N+](=O)[O-])cc2Cl)c1F [D9]
at least 80%: control of Spodoptera littoralis [1] | control of Thrips tabaci [7] | control of Plutella xylostella [3] | control of Heliothis virescens [4] | control of Diabrotica balteata [5] | control of Tetranychus urticae [6]

CCc1cc(C(F)(C(F)(F)F)C(F)(F)F)cc(CC)c1NC(=O)c1ccc(C#N)c(NC(=O)c2ccc(C#N)cc2)c1F [D24]
at least 80%: control of Spodoptera littoralis [1] | control of Thrips tabaci [7] | control of Plutella xylostella [3] | control of Heliothis virescens [4] | control of Diabrotica balteata [5] | control of Tetranychus urticae [6]

CCc1cc(C(F)(C(F)(F)F)C(F)(F)F)cc(CC)c1NC(=O)c1ccc(C#N)c(NC(=O)c2ccc([N+](=O)[O-])cc2)c1F [D25]
at least 80%: control of Spodoptera littoralis [1] | control of Thrips tabaci [7] | control of Plutella xylostella [3] | control of Heliothis virescens [4] | control of Diabrotica balteata [5] | control of Tetranychus urticae [6]

CCc1cc(C(F)(C(F)(F)F)C(F)(F)F)cc(CC)c1NC(=O)c1ccc(C#N)c(NC(=O)c2ccc([N+](=O)[O-])cc2Cl)c1F [D29]
at least 80%: control of Spodoptera littoralis [1] | control of Thrips tabaci [7] | control of Plutella xylostella [3] | control of Heliothis virescens [4] | control of Diabrotica balteata [5] | control of Tetranychus urticae [6]

CCc1cc(C(F)(C(F)(F)F)C(F)(F)F)cc(CC)c1NC(=O)c1ccc(C#N)c(NC(=O)c2ccc(F)cc2Cl)c1F [D36]
at least 80%: control of Spodoptera littoralis [1] | control of Thrips tabaci [7] | control of Plutella xylostella [3] | control of Heliothis virescens [4] | control of Diabrotica balteata [5] | control of Tetranychus urticae [6]

COCc1cc(C(F)(C(F)(F)F)C(F)(F)F)cc(C)c1NC(=O)c1ccc(C#N)c(NC(=O)c2ccc(F)cc2)c1F [D53]
at least 80%: control of Thrips tabaci [7] | control of Plutella xylostella [3] | control of Heliothis virescens [4] | control of Diabrotica balteata [5] | control of Tetranychus urticae [6]

COCc1cc(C(F)(C(F)(F)F)C(F)(F)F)cc(C)c1NC(=O)c1cc(F)c(C#N)c(NC(=O)c2ccccc2)c1F [E54]
at least 80%: control of Spodoptera littoralis [1] | control of Thrips tabaci [7] | control of Plutella xylostella [3] | control of Heliothis virescens [4] | control of Diabrotica balteata [5] | control of Tetranychus urticae [6]
